Test results from patent publication US20110038885A1 (priority 2007, published 2011).
Bridge positions count the residues as written; N and C are the ends. Square brackets hold non-standard residues; d marks the D form. * marks the point of attachment. Lauroyl = CCCCCCCCCCCC(=O)*; Decanoyl = CCCCCCCCCC(=O)*; Orn = NCCC[C@H](N)C(=O)O; Dap = NC[C@H](N)C(=O)O; Butyryl = CCCC(=O)*; Bz = O=C(c1ccccc1)*

Assay: general procedure: Fmoc solid-phase peptide synthesis; Rink Amide MBHA resin (0.58 mmol/g or 0.78 mmol/g); Wang resin for C-terminal acids; DIC/HOBt
Details: whole synthesis; for purity (crude or final not stated) / final HPLC purity: analytical HPLC; for purity (crude or final not stated): scale of the general procedure 0.090 mmol

Substance	purity (crude or final not stated) [%]	further results
Ac-[Dap]KWIQD-NH2 (lactam 1-6; SMILES CC[C@H](C)[C@@H]1NC(=O)[C@H](Cc2c[nH]c3ccccc23)NC(=O)[C@H](CCCCN)NC(=O)[C@@H](NC(C)=O)CNC(=O)C[C@@H](C(N)=O)NC(=O)[C@H](CCC(N)=O)NC1=O)	94.8	–
Ac-[Dap]KWIQE-NH2 (lactam 1-6; SMILES CC[C@H](C)[C@@H]1NC(=O)[C@H](Cc2c[nH]c3ccccc23)NC(=O)[C@H](CCCCN)NC(=O)[C@@H](NC(C)=O)CNC(=O)CC[C@@H](C(N)=O)NC(=O)[C@H](CCC(N)=O)NC1=O)	96.4	–
Ac-[Orn]KWIQD-NH2 (lactam 1-6; SMILES CC[C@H](C)[C@@H]1NC(=O)[C@H](Cc2c[nH]c3ccccc23)NC(=O)[C@H](CCCCN)NC(=O)[C@@H](NC(C)=O)CCCNC(=O)C[C@@H](C(N)=O)NC(=O)[C@H](CCC(N)=O)NC1=O)	97.4	–
Ac-[Orn]KWIQE-NH2 (lactam 1-6; SMILES CC[C@H](C)[C@@H]1NC(=O)[C@H](Cc2c[nH]c3ccccc23)NC(=O)[C@H](CCCCN)NC(=O)[C@@H](NC(C)=O)CCCNC(=O)CC[C@@H](C(N)=O)NC(=O)[C@H](CCC(N)=O)NC1=O)	96.2	–
Ac-[dC]KWIQC-NH2 (disulfide 1-6; SMILES CC[C@H](C)[C@@H]1NC(=O)[C@H](Cc2c[nH]c3ccccc23)NC(=O)[C@H](CCCCN)NC(=O)[C@H](NC(C)=O)CSSC[C@@H](C(N)=O)NC(=O)[C@H](CCC(N)=O)NC1=O)	99	–
Ac-[dC][dQ][dI][dW][dK][dC]-NH2 (disulfide 1-6; SMILES CC[C@@H](C)[C@H]1NC(=O)[C@@H](CCC(N)=O)NC(=O)[C@H](NC(C)=O)CSSC[C@H](C(N)=O)NC(=O)[C@@H](CCCCN)NC(=O)[C@@H](Cc2c[nH]c3ccccc23)NC1=O)	92.3	–
Ac-[dC][dQ][dI][dW][dK][dQ][dK][dP][dD][dL][dC]-NH2 (disulfide 1-11; SMILES CC[C@@H](C)[C@H]1NC(=O)[C@@H](CCC(N)=O)NC(=O)[C@H](NC(C)=O)CSSC[C@H](C(N)=O)NC(=O)[C@@H](CC(C)C)NC(=O)[C@@H](CC(=O)O)NC(=O)[C@H]2CCCN2C(=O)[C@@H](CCCCN)NC(=O)[C@@H](CCC(N)=O)NC(=O)[C@@H](CCCCN)NC(=O)[C@@H](Cc2c[nH]c3ccccc23)NC1=O)	99	–
Ac-[dQ]CKWIQC-NH2 (disulfide 2-7; SMILES CC[C@H](C)[C@@H]1NC(=O)[C@H](Cc2c[nH]c3ccccc23)NC(=O)[C@H](CCCCN)NC(=O)[C@@H](NC(=O)[C@@H](CCC(N)=O)NC(C)=O)CSSC[C@@H](C(N)=O)NC(=O)[C@H](CCC(N)=O)NC1=O)	–	final HPLC purity (scale 0.090 mmol): 91.3%; isolated mass (scale 0.090 mmol): 31.5 mg; isolated yield (scale 0.090 mmol): yield=37%
Butyryl-CKWIQC-NH2 (disulfide 1-6; SMILES CCCC(=O)N[C@H]1CSSC[C@@H](C(N)=O)NC(=O)[C@H](CCC(N)=O)NC(=O)[C@H]([C@@H](C)CC)NC(=O)[C@H](Cc2c[nH]c3ccccc23)NC(=O)[C@H](CCCCN)NC1=O)	88.1	–
Butyryl-[dC][dQ][dI][dW][dK][dC]-NH2 (disulfide 1-6; SMILES CCCC(=O)N[C@@H]1CSSC[C@H](C(N)=O)NC(=O)[C@@H](CCCCN)NC(=O)[C@@H](Cc2c[nH]c3ccccc23)NC(=O)[C@@H]([C@H](C)CC)NC(=O)[C@@H](CCC(N)=O)NC1=O)	95.5	–
Butyryl-[dC][dQ][dV][dW][dK][dC]-NH2 (disulfide 1-6; SMILES CCCC(=O)N[C@@H]1CSSC[C@H](C(N)=O)NC(=O)[C@@H](CCCCN)NC(=O)[C@@H](Cc2c[nH]c3ccccc23)NC(=O)[C@@H](C(C)C)NC(=O)[C@@H](CCC(N)=O)NC1=O)	93	–
Bz-CKWIQC-NH2 (disulfide 1-6; SMILES CC[C@H](C)[C@@H]1NC(=O)[C@H](Cc2c[nH]c3ccccc23)NC(=O)[C@H](CCCCN)NC(=O)[C@@H](NC(=O)c2ccccc2)CSSC[C@@H](C(N)=O)NC(=O)[C@H](CCC(N)=O)NC1=O)	88.3	–
Bz-[dC][dQ][dI][dW][dK][dC]-NH2 (disulfide 1-6; SMILES CC[C@@H](C)[C@H]1NC(=O)[C@@H](CCC(N)=O)NC(=O)[C@H](NC(=O)c2ccccc2)CSSC[C@H](C(N)=O)NC(=O)[C@@H](CCCCN)NC(=O)[C@@H](Cc2c[nH]c3ccccc23)NC1=O)	91.2	–
Decanoyl-CKWIQC-NH2 (disulfide 1-6; SMILES CCCCCCCCCC(=O)N[C@H]1CSSC[C@@H](C(N)=O)NC(=O)[C@H](CCC(N)=O)NC(=O)[C@H]([C@@H](C)CC)NC(=O)[C@H](Cc2c[nH]c3ccccc23)NC(=O)[C@H](CCCCN)NC1=O)	94	–
GKWIQD-NH2 (lactam N-6; SMILES CC[C@H](C)[C@@H]1NC(=O)[C@H](Cc2c[nH]c3ccccc23)NC(=O)[C@H](CCCCN)NC(=O)CNC(=O)C[C@@H](C(N)=O)NC(=O)[C@H](CCC(N)=O)NC1=O)	90.8	–
GKWIQE-NH2 (lactam N-6; SMILES CC[C@H](C)[C@@H]1NC(=O)[C@H](Cc2c[nH]c3ccccc23)NC(=O)[C@H](CCCCN)NC(=O)CNC(=O)CC[C@@H](C(N)=O)NC(=O)[C@H](CCC(N)=O)NC1=O)	98.3	–
H-CDPKQKWIQC-NH2 (disulfide 1-10; SMILES CC[C@H](C)[C@@H]1NC(=O)[C@H](Cc2c[nH]c3ccccc23)NC(=O)[C@H](CCCCN)NC(=O)[C@H](CCC(N)=O)NC(=O)[C@H](CCCCN)NC(=O)[C@@H]2CCCN2C(=O)[C@H](CC(=O)O)NC(=O)[C@@H](N)CSSC[C@@H](C(N)=O)NC(=O)[C@H](CCC(N)=O)NC1=O)	96.6	–
H-CKQKWIQC-NH2 (disulfide 1-8; SMILES CC[C@H](C)[C@@H]1NC(=O)[C@H](Cc2c[nH]c3ccccc23)NC(=O)[C@H](CCCCN)NC(=O)[C@H](CCC(N)=O)NC(=O)[C@H](CCCCN)NC(=O)[C@@H](N)CSSC[C@@H](C(N)=O)NC(=O)[C@H](CCC(N)=O)NC1=O)	98	–
H-CKWIQC-NH2 (disulfide 1-6; SMILES CC[C@H](C)[C@@H]1NC(=O)[C@H](Cc2c[nH]c3ccccc23)NC(=O)[C@H](CCCCN)NC(=O)[C@@H](N)CSSC[C@@H](C(N)=O)NC(=O)[C@H](CCC(N)=O)NC1=O)	–	final HPLC purity (scale 0.090 mmol): 95.4%; isolated mass (scale 0.090 mmol): 31.5 mg; isolated yield (scale 0.090 mmol): 45% yield
H-CLDPKQKWIQC-NH2 (disulfide 1-11; SMILES CC[C@H](C)[C@@H]1NC(=O)[C@H](Cc2c[nH]c3ccccc23)NC(=O)[C@H](CCCCN)NC(=O)[C@H](CCC(N)=O)NC(=O)[C@H](CCCCN)NC(=O)[C@@H]2CCCN2C(=O)[C@H](CC(=O)O)NC(=O)[C@H](CC(C)C)NC(=O)[C@@H](N)CSSC[C@@H](C(N)=O)NC(=O)[C@H](CCC(N)=O)NC1=O)	98	–
H-CLDPKQKWIQ[dC]-NH2 (disulfide 1-11; SMILES CC[C@H](C)[C@@H]1NC(=O)[C@H](Cc2c[nH]c3ccccc23)NC(=O)[C@H](CCCCN)NC(=O)[C@H](CCC(N)=O)NC(=O)[C@H](CCCCN)NC(=O)[C@@H]2CCCN2C(=O)[C@H](CC(=O)O)NC(=O)[C@H](CC(C)C)NC(=O)[C@@H](N)CSSC[C@H](C(N)=O)NC(=O)[C@H](CCC(N)=O)NC1=O)	86.2	–
H-CPKQKWIQC-NH2 (disulfide 1-9; SMILES CC[C@H](C)[C@@H]1NC(=O)[C@H](Cc2c[nH]c3ccccc23)NC(=O)[C@H](CCCCN)NC(=O)[C@H](CCC(N)=O)NC(=O)[C@H](CCCCN)NC(=O)[C@@H]2CCCN2C(=O)[C@@H](N)CSSC[C@@H](C(N)=O)NC(=O)[C@H](CCC(N)=O)NC1=O)	93.5	–
H-CQKWIQC-NH2 (disulfide 1-7; SMILES CC[C@H](C)[C@@H]1NC(=O)[C@H](Cc2c[nH]c3ccccc23)NC(=O)[C@H](CCCCN)NC(=O)[C@H](CCC(N)=O)NC(=O)[C@@H](N)CSSC[C@@H](C(N)=O)NC(=O)[C@H](CCC(N)=O)NC1=O)	94.4	–
H-CWIQC-NH2 (disulfide 1-5; SMILES CC[C@H](C)[C@@H]1NC(=O)[C@H](Cc2c[nH]c3ccccc23)NC(=O)[C@@H](N)CSSC[C@@H](C(N)=O)NC(=O)[C@H](CCC(N)=O)NC1=O)	–	final HPLC purity (scale 0.068 mmol): 99%; isolated mass (scale 0.068 mmol): 13.1 mg; isolated yield (scale 0.068 mmol): yield=30%
H-DPCKQKWIQC-NH2 (disulfide 3-10; SMILES CC[C@H](C)[C@@H]1NC(=O)[C@H](Cc2c[nH]c3ccccc23)NC(=O)[C@H](CCCCN)NC(=O)[C@H](CCC(N)=O)NC(=O)[C@H](CCCCN)NC(=O)[C@@H](NC(=O)[C@@H]2CCCN2C(=O)[C@@H](N)CC(=O)O)CSSC[C@@H](C(N)=O)NC(=O)[C@H](CCC(N)=O)NC1=O)	95	–
H-DPKCQKWIQC-NH2 (disulfide 4-10; SMILES CC[C@H](C)[C@@H]1NC(=O)[C@H](Cc2c[nH]c3ccccc23)NC(=O)[C@H](CCCCN)NC(=O)[C@H](CCC(N)=O)NC(=O)[C@@H](NC(=O)[C@H](CCCCN)NC(=O)[C@@H]2CCCN2C(=O)[C@@H](N)CC(=O)O)CSSC[C@@H](C(N)=O)NC(=O)[C@H](CCC(N)=O)NC1=O)	99	–
H-K(Lauroyl)DCLDPKQKWIQC-NH2 (disulfide 3-13; SMILES CCCCCCCCCCCC(=O)NCCCC[C@H](N)C(=O)N[C@@H](CC(=O)O)C(=O)N[C@H]1CSSC[C@@H](C(N)=O)NC(=O)[C@H](CCC(N)=O)NC(=O)[C@H]([C@@H](C)CC)NC(=O)[C@H](Cc2c[nH]c3ccccc23)NC(=O)[C@H](CCCCN)NC(=O)[C@H](CCC(N)=O)NC(=O)[C@H](CCCCN)NC(=O)[C@@H]2CCCN2C(=O)[C@H](CC(=O)O)NC(=O)[C@H](CC(C)C)NC1=O)	97	–
H-K(Lauroyl)ICLDPKQKWIQC-NH2 (disulfide 3-13; SMILES CCCCCCCCCCCC(=O)NCCCC[C@H](N)C(=O)N[C@H](C(=O)N[C@H]1CSSC[C@@H](C(N)=O)NC(=O)[C@H](CCC(N)=O)NC(=O)[C@H]([C@@H](C)CC)NC(=O)[C@H](Cc2c[nH]c3ccccc23)NC(=O)[C@H](CCCCN)NC(=O)[C@H](CCC(N)=O)NC(=O)[C@H](CCCCN)NC(=O)[C@@H]2CCCN2C(=O)[C@H](CC(=O)O)NC(=O)[C@H](CC(C)C)NC1=O)[C@@H](C)CC)	99	–
